Measurements as given in US20120245092A1.
Where a chain is given by its changes, count along the chain named. These are yes or no findings as the source states them, for the method shown. Some entries that bind do so weakly or less than the wild type. Tags and fused reporters may be left off the sequences shown. One block for each binder: values may come before it.

Legend:
[1] = target: CNAβ C-terminal fragment (calcineurin A beta clone selected from the testes cDNA library, two-hybrid prey) (human) (UniProt P16298); assay: yeast two-hybrid
[2] = target: CNAγ C-terminal fragment (calcineurin A gamma clone selected from the testes cDNA library, two-hybrid prey) (human) (UniProt P48454); assay: yeast two-hybrid
[3] = target: CNA construct CNA3, two-hybrid prey (Homo sapiens (Human)) (UniProt P16298); assay: yeast two-hybrid assay (FIG. 14)
[4] = target: T1, NS5A-TP2 (two-hybrid prey) (human) (UniProt Q7Z4H3); assay: yeast two-hybrid assay (FIG. 14)
T1 sequence: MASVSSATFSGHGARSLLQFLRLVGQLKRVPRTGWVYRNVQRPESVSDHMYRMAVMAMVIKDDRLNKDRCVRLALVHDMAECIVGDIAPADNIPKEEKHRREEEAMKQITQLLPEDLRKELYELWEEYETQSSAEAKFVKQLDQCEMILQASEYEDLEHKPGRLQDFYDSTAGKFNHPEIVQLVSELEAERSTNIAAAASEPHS

[5] = target: CNA construct CNA3, two-hybrid prey (Homo sapiens (Human)) (UniProt P16298); assay: yeast two-hybrid assay, higher sensitivity (FIG. 14)
[6] = target: T1, NS5A-TP2 (two-hybrid prey) (human); assay: as above
[7] = target: CNAβ C-terminal fragment (calcineurin A beta clone selected from the testes cDNA library, two-hybrid prey) (human) (UniProt P16298); assay: yeast two-hybrid screening of human testis cDNA library
[8] = target: CNAγ C-terminal fragment (calcineurin A gamma clone selected from the testes cDNA library, two-hybrid prey) (human) (UniProt P48454); assay: as above
[9] = target: T1, NS5A-TP2 (two-hybrid prey) (human); assay: yeast two-hybrid screening of human testis and foetal brain cDNA libraries
[10] = target: T1, NS5A-TP2 (two-hybrid prey) (human); assay: yeast two-hybrid screening against LexA-R5G42, brain cDNA library; the cell is the number of clones selected
[11] = target: CNAβ C-terminal fragment (calcineurin A beta clone selected from the testes cDNA library, two-hybrid prey) (human) (UniProt P16298); assay: yeast two-hybrid screening against LexA-R5G42, testes cDNA library; the cell is the number of clones selected
[12] = target: CNAγ C-terminal fragment (calcineurin A gamma clone selected from the testes cDNA library, two-hybrid prey) (human) (UniProt P48454); assay: as above
[13] = target: T1, NS5A-TP2 (two-hybrid prey) (human); assay: as above
[14] = target: CNAβ C-terminal fragment (calcineurin A beta clone selected from the testes cDNA library, two-hybrid prey) (human) (UniProt P16298); assay: yeast two-hybrid assay (FIG. 9)
[15] = target: CNAγ C-terminal fragment (calcineurin A gamma clone selected from the testes cDNA library, two-hybrid prey) (human) (UniProt P48454); assay: yeast two-hybrid assay (FIG. 9)
[16] = target: T1, NS5A-TP2 (two-hybrid prey) (human); assay: yeast two-hybrid assay (FIG. 9)

binding [1]: binds | binding [2]: binds | binding [3]: binds | binding [4]: binds | binding [5]: binds | binding [6]: binds | binding [7]: binds | binding [8]: binds | binding [9]: binds | binding [10]: binds | binding [11]: binds | binding [12]: binds | binding [13]: binds
B1: LexA-R5G42 fusion protein (peptide aptamer R5G42 as two-hybrid bait) (designed binder, not shown: large carriers)
chain: MVKQIESKTAFQEALDAAGDKLVVVDFSATWCGPSAVTFAVCALGPCKMIKPFFHSLSEKYSNVIFLEVDVDDCQDVASECEVKCMPTFQFFKKGQKVGEFSGANKEKLEATINELV

binding [14]: binds | binding [15]: binds | binding [3]: binds | binding [5]: binds
B2: R5G42 mutant C2 (LexA fusion, two-hybrid bait) (designed binder, not shown: small tags and cut ends)
chain: B1 chain with P52L

binding [14]: binds | binding [15]: binds | binding [3]: binds | binding [5]: binds
B3: R5G42 mutant C7 (LexA fusion, two-hybrid bait) (designed binder, not shown: small tags and cut ends)
chain: B1 chain with L22P

binding [14]: binds | binding [15]: binds | binding [3]: binds | binding [5]: binds
B4: R5G42 mutant C8 (LexA fusion, two-hybrid bait) (designed binder, not shown: small tags and cut ends)
chain: B1 chain with F39I

binding [16]: binds | binding [3]: binds | binding [4]: binds | binding [5]: binds | binding [6]: binds
B5: R5G42 mutant N9 (LexA fusion, two-hybrid bait) (designed binder, not shown: small tags and cut ends)
chain: B1 chain with T30A
